The values that follow come from PubChem BioAssay AID1508600 (Functional Genomics Laboratory (NCATS/FGL), 2020).

Out of some 53,000 sequences screened, about 3,700 (7%) were called active.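 How the source made its calls: active means gene knockdowns whose robust z-score for IL-1 alpha signal is at least 2 or at most -2, so actives lie on both sides; inactive means the rest.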 Some of the results follow.

The nature of this experiment: Components of the Cytosolic LPS Sensing Pathway: Gene Identification via Genome-wide siRNA Screen.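 Further: robust z of the log signal after scaling to non-targeting control siRNA wells of the plate.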 The note with it: RAW264.7 macrophages, IL-1a HTRF, actives lie on both sides, screened at 100 nM (by protocol), cells primed 5 h with Pam3CSK4 first. In a few lines:
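Supernatant IL-1a by HTRF from RAW264.7 cells primed with Pam3CSK4 (5 hours) and transfected with LipidA (24 hour) after 48h siRNA knockdown at 100 nM; cell viability checked with CellTiter-Glo.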
As for GAUGACUCGGGUCCGAGUATT against Mrpl14, the z-score was inactive: 0.713.
On to GGAGCUGAAUCAUUAUCUGTT against Rabep1, for which the z-score is inactive: -0.0512.
Consider GGAGAACAUCACCAGUUACTT against Samd4b, for which the z-score was inactive: 1.06.
Take GGCAUUCACGUGUACUCCUTT against Slc26a5: the z-score was inactive: -0.7.
Turning to GGAAAAUUAUCCUAGUGCUTT against Serpinb2, the z-score is inactive: -0.355.
Turning to GGACAAGCAAGAGAUGCUUTT against Atp6v1h, the z-score is inactive: 1.05.
GGCAUCCAACUUCUUUAUGTT against Mrgpra7: the z-score was inactive: -0.472.
To GCUCCUGAGAGCUAUAGUUTT against Ddx39a belongs inactive: -1.23; to GGUAGUGUUAACUAUAUGGTT against Hmgb3, inactive: -0.401.
In the case of GGGAGCAGUAGCAGUGUCATT against Ggnbp2, the z-score is inactive: -0.834.
Consider GGAAAUCCACAGAUUAAGATT against Hspa13, for which the z-score was inactive: 0.61.
To GGCACUUUGGAUUAAUUGUTT against Pole4 belongs inactive: -0.186; to “GGUGACAGUUGUUCACAAATT against 4933405O20Rik”, inactive: -1.4; to CCUCUGAUCGAAAGUCUAATT against Ccdc9, inactive: 1.39.
To GGGACAAAUCUUUUGAUUATT against Impact belongs inactive: 0.983.
To GGAAACAGUCCAGAACGAGTT against Yju2 belongs inactive: -0.828; to GCAUUGUCAUGAUACAACATT against Fem1b, inactive: 0.793.
GGAAUAUACAGUGAAGACATT against Sycp1: the z-score was inactive: 0.755.
As for GGUGGACUCAUUCUAAUACTT against Nudt1, the z-score is inactive: -1.06.
Then GGACUUAGCGGAUAAUGACTT against Nlgn3, with inactive: -0.597; and GCAGAAGAUAGAGUAUGCATT against Myo1h, with inactive: -1.06; and GGAGCAUCUUCUAAAGUAUTT against Wdr1, with inactive: -0.681.
As for GCUGUUAAGGAAGGCGGACTT against Pum3, the z-score was inactive: 0.839.
For the sequence GCCCUGGUCUAUUCUGACUTT against Gpr152, the z-score was inactive: -0.862.
As to GGACUUACGAGAAAGCGUATT against Tacr1, the z-score is inactive: 0.202.
In the case of CGACCCUCUAAGGAUAUGCTT against Zfp456, the z-score is inactive: 1.01.
Then CCAUUAGCCUUAAUGAUGUTT against BC048403, with inactive: 0.794; and GGAAGAAUGUAUGAACUGUTT against Col26a1, with inactive: -0.811; and CCAGUGAUUACAGAAUUACTT against A4galt, with inactive: 0.0963.
Turning to CGUCAUUUCUCAUCCUGCUTT against Olfr76, the z-score is inactive: -0.216.
With CCAGUUUACGUGGAAAAAATT against Cox4i1, the z-score is inactive: -0.366.
To CCUUAUAAUUGACACUGAUTT against Toe1 belongs inactive: 0.312; to GCGAACGAGCCUUUAAGCUTT against Fnta, inactive: -0.156; to GGUUGGAUGCUGAAGUAGATT against Gpr137c, inactive: 0.206.
As to GCUGAUGAACGAAUACAACTT against Kcnk5, the z-score is inactive: 1.25.
To GGGCUUCCAUCUUUCAUCCTT against Trex2 belongs inactive: 1.2; to GGCCAACAUCAUUGAGGCGTT against Eif2b2, inactive: -1.17; to GGAGAUGUUAAGCAAGAAGTT against Chmp4b, inactive: -0.865.
Turning to CGGAAUUGACCUAUUUGCATT against Mmp25, the z-score was inactive: 1.84.
Turning to GCUUUCACUAAUCAGUACATT against Setd5, the z-score was inactive: -0.0813.
Consider GGAGGUUGUCAAGUCUCCATT against Tnfrsf8, for which the z-score was inactive: -1.31.
On to AUGGACCAAGGAAAAGUGUTT against Olfr951, for which the z-score was inactive: 0.308.
Consider GAGGAAAGAAUAGACAAGATT against Rhox6, for which the z-score is inactive: -1.95.
GGAACAAAAACCAUUGUGATT against Gng7: the z-score is inactive: -1.49.
For CCCAAAUGAUUGGAUCUGUTT against Cd40lg, the z-score is inactive: 0.273.
Then GGGACAUGGUCAUCACUAGTT against Clvs2, with inactive: -1.71.
For the sequence GGAAAGCUUACAAAUAUGCTT against C1galt1c1, the z-score is inactive: 0.457.
To GGCUGUACCAAUCUGACACTT against Pvalb belongs inactive: 0.318; to GCAGAAGCGUGGCAUUGUATT against Ins2, inactive: 0.5.
On to GCCAUAUAAGUGAAAAUCGTT against Gda, for which the z-score is inactive: -0.188.
To GGAUUCUGAAGGAACUUAATT against Slc8a1 belongs inactive: -0.283; to GGUGGUUGUUGUCAAGGACTT against Rbm3, inactive: 0.737; to GCAUUACGUAAGAAUGGUUTT against Eif5a, inactive: -1.43.
For GGCUACACUGGAUAUUUUUTT against F12, the z-score was inactive: 0.464.
With GGAGGGUCGGCUUAUAAUUTT against Adam6b, the z-score is active: 2.16.
Then GCUGAUCCCUUGAGUGAAUTT against Rbm18, with inactive: -1.93; and GGAAACAGCACAACAAACGTT against Adam26a, with active: 2.93; and GGUAGACCAGCUUAAGAAGTT against Gngt1, with inactive: -0.0811.
With GGGUGUUGGAGUUUGCCAUTT against Nat8l, the z-score was inactive: -0.23.
Consider GCUUAUGAGGUGUUGAGCGTT against Dnaja3, for which the z-score was inactive: -0.22.
With GCCAUGAUGUAGAGGUAGGTT against Zfp33b, the z-score is inactive: 0.721.
With GGCCUAAAUUGACAAACUUTT against Oga, the z-score was inactive: 1.04.
Then GAGAAGUGUCUUGGGAAACTT against Gchfr, with inactive: -0.589.
Then GGAACGAACUUACAGAGAUTT against Krt27, with inactive: -1.77; and GGCAAUGCACUGCUAUUAUTT against Olfr617, with inactive: 0.192; and GCUAUUGUGUAUUUUCCAATT against Slc43a2, with inactive: 1.33.
To GGAGAACGUGUUCUUUCCUTT against Procr belongs inactive: -1.19; to GGGACCAAAACCUGCAUUGTT against App, inactive: -0.318.
